Experimental data published in PubChem BioAssay AID1471 (National Center for Advancing Translational Sciences (NCATS), 2008).
About 310 (0.13%) of roughly 230,000 compounds were called active. The shares of active, inactive and inconclusive entries below differ from those in the screen. Calls come from the whole dose curve; as a rule, active = well fitted activation curve with a large enough effect; inconclusive = small, poorly fitted or top-dose-only effect; inactive = no such curve, though single readings can be large or run the other way. Where the call is inconclusive, the potency comes from a doubtful curve fit.

Experiment: qHTS Multiplex Assay to Identify Dual Action Probes in a Cell Model of Huntington: Cytoprotection (ATP); note: nearly all actives have a fitted effect of over 45% in size;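 for cytoprotection (ATP increase): toxic huntingtin expression switched on by the ecdysone agonist tebufenozide; % of control where 0% means no effect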
Settings: PC12 HTT-Q103 induced, ATP luminescence, 40 h; cytoprotection (ATP increase): at 56.4 µM (top of the series) unless noted
In short: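 Huntington model: PC12 line, ecdysone-inducible HTTQ103 exon1–GFP, tebufenozide 100 nM. Test articles in a dose series. Endpoint luminescence from cellular ATP.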
Potency is the fitted concentration of half-maximal effect.

Structure (SMILES)	Potency	cytoprotection (ATP increase)
CN(C)c1ncnc2ccc(-c3ccccc3C#N)cc12	inactive	
CCSc1nnc(NC(=O)CSC2=NCCS2)s1	inconclusive: 14100 nM [activator, single point]	
CS(=O)(=O)c1ccc(Cn2c3c(c4cc(F)cc(F)c42)CCC[C@H]3CC(=O)O)cc1	inconclusive: 12600 nM [activator, partial curve, poor fit]	
CO[C@@H]1/C=C\CC(=O)N[C@@H](C)C(=O)OC[C@H](NS(=O)(=O)c2ccc(C)cc2)[C@H](C)/C=C\CC(=O)OC[C@H]1C	inconclusive: 562 nM [activator, single point]	
C=C1/C(=C\C=C2/CCC[C@]3(C)C([C@H](C)CCCC(C)(C)O)CC[C@@H]23)C[C@@H](O)C[C@@H]1O (stereo not given in full)	inconclusive: 89.1 nM [activator, full curve, poor fit]	
C[C@H](Oc1ccccc1)C(=O)N[C@@H]1C(=O)N2[C@@H]1SC(C)(C)[C@@H]2C(=O)O	inconclusive: 251 nM [activator, partial curve, poor fit]	
COC(=O)C/C=C\[C@@H](C)[C@@H](/C=N\OC[C@@H]1O[C@H](c2ccccc2)C=C[C@@H]1Oc1ccc(OC)cc1)NS(=O)(=O)c1ccc(C)cc1	inconclusive: 178 nM [activator, full curve]	
O=C(OCCN1C(=O)c2cccc3c(N4CCOCC4)ccc(c23)C1=O)c1ccc(Cl)cc1	inconclusive: 1260 nM [activator, single point]	
Cc1nn2c(C(F)(F)F)cc(-c3ccc(Cl)cc3)nc2c1C(=O)N1CCOCC1	inactive	
COc1cc(C2CC(=O)NC3=C2C(=O)CC(C)(C)C3)ccc1O (stereo not given)	inconclusive: 5620 nM [activator, single point]	
C=CCNC(=O)/C(C#N)=C/c1ccc2c(c1)OCCO2	inconclusive: 1410 nM [activator, partial curve]	
COC(=O)N1CCN(c2ccc(C)cc2)C(C)C1 (stereo not given)	inconclusive: 11200 nM [activator, single point]	
COc1cccc(/C=C(\C#N)C(=O)NC2CCS(=O)(=O)C2)c1 (stereo not given)	inconclusive: 794 nM [activator, partial curve]	
O=C(O)/C(=C\c1ccc(O)cc1)c1cccc2ccccc12		inactive: -8.31% [at 10 µM]
CCOc1cc(/C=N\Nc2nc(-c3ccc(C)cc3)c(NC(C)=O)s2)ccc1O		inactive: 16.9% [at 10 µM]
CN1c2c(nc(N)[nH]c2=O)NCC1CNc1ccc(C(=O)NC(CCC(=O)O)C(=O)O)cc1 (stereo not given)	inconclusive: 14100 nM [activator, single point]	
CCCCC(=O)c1c(C)cc(C)[nH]c1=O	inconclusive: 28200 nM [activator, partial curve]	
O=C(Nc1ccccc1)N1CCCC2(CCN(C(=O)c3cc(C(F)(F)F)cc(C(F)(F)F)c3)CC2)C1	inconclusive: 501 nM [activator, single point]	
N=C(N)S/C=C\C(=O)O		inconclusive: 33.4% [activator]
Cc1nn(C)c(C)c1CNC(=O)Nc1ccc2c(c1)OCO2	inconclusive: 89.1 nM [activator, full curve, poor fit]	

Quoted at random: 3 compounds from above.
Structure (SMILES)	Potency	cytoprotection (ATP increase)
CO[C@@H]1/C=C\CC(=O)N[C@@H](C)C(=O)OC[C@H](NS(=O)(=O)c2ccc(C)cc2)[C@H](C)/C=C\CC(=O)OC[C@H]1C	inconclusive: 562 nM [activator, single point]	
CCOc1cc(/C=N\Nc2nc(-c3ccc(C)cc3)c(NC(C)=O)s2)ccc1O		inactive: 16.9% [at 10 µM]
N=C(N)S/C=C\C(=O)O		inconclusive: 33.4% [activator]

The listing continues:

Structure (SMILES)	Potency	cytoprotection (ATP increase)
Nc1c(C(=O)NCc2ccc3c(c2)OCO3)nnn1Cc1ccc(Br)cc1		inactive: 3.67% [at 10 µM]
N[C@@H](CSC1(c2ccc(Cl)cc2)c2ccccc2-c2ccccc21)C(=O)O		inactive: 7.61% [at 10 µM]
Cc1ccccc1Nc1oc(-c2ccccc2)nc1-c1ccccc1F	inconclusive: 5620 nM [activator, single point]	
CC(=O)NS(=O)(=O)c1ccc(NC(=S)NC(=O)Cc2ccccc2)cc1	inconclusive: 5620 nM [activator, partial curve, poor fit]	
CCN(CC)C(=O)C1CCCN(C(=O)Nc2ccc3nsnc3c2)C1 (stereo not given)	inactive	
N[C@@]1(C(=O)O)CN[C@H](C(=O)O)C1	inconclusive: 89.1 nM [activator, full curve, poor fit]	
N#CC1=C(S)N=C(N)C(c2nc(-c3ccccc3)cs2)C12CCCCC2 (stereo not given)	inconclusive: 2510 nM [activator, single point]	
CCCCN(C(=S)Nc1ccc(F)cc1)c1c(N)n(CCC)c(=O)[nH]c1=O	inconclusive: 89.1 nM [activator, partial curve, poor fit]	
O=C(NCCc1cccc(Cl)c1)c1cccs1	inconclusive: 158 nM [activator, full curve, poor fit]	
CCOc1ccc(NC(=O)CNc2ccc(C)cc2Cl)cc1	inactive	
O=C(NCc1ccco1)c1ccc(COc2cc(Cl)ccc2Cl)cc1	inconclusive: 501 nM [activator, partial curve]	
COC(=O)c1ccc(CSc2nc3ccccc3c(=O)n2-c2ccc(OC)c(OC)c2)o1		inactive: -4.59% [at 10 µM]
Cn1ncc([N+](=O)[O-])c1C(=O)n1nnc2ccccc21	inconclusive: 35500 nM [activator, single point]	
CCOC(=O)c1ccc(NC(c2ccc(N(C)C)cc2)P(=O)(OC(C)C)OC(C)C)cc1 (stereo not given)	inactive	
COc1ccccc1OC(C)C(=O)Nc1nc(-c2ccc(S(=O)(=O)N3CCOCC3)cc2)cs1 (stereo not given)	inactive	
CCN(CC)C(=O)Cn1cc(SCC(=O)NCc2ccco2)c2ccccc21	inconclusive: 6310 nM [activator, single point]	
Cc1nn(CC(=O)NCc2ccccc2F)c(C)c1[N+](=O)[O-]		inactive: 12.4% [at 10 µM]
CCC(=O)c1c(O)cc(O)cc1O	inconclusive: 631 nM [activator, full curve, poor fit]	
Cc1cccc(CN2CCN(C(=O)CCc3nnc(C4CCCCC4)o3)CC2)c1	inconclusive: 1260 nM [activator, single point]	
O=C(O)C1Cc2c([nH]c3ccccc23)C(c2coc3ccccc3c2=O)N1 (stereo not given)	inconclusive: 501 nM [activator, full curve, poor fit]	
